# According to the supplement of paper PMC12067093, “Discovery and optimisation of a covalent ligand for TRIM25 and its application to targeted protein ubiquitination” (Chemical Science, 2025):
# By UniProt entry, the sequences of proteins in these tests, tags left out. Where a name states a change or a piece, a line headed by the entry shows the natural chain unless it says otherwise.
# UniProt Q9NUQ6: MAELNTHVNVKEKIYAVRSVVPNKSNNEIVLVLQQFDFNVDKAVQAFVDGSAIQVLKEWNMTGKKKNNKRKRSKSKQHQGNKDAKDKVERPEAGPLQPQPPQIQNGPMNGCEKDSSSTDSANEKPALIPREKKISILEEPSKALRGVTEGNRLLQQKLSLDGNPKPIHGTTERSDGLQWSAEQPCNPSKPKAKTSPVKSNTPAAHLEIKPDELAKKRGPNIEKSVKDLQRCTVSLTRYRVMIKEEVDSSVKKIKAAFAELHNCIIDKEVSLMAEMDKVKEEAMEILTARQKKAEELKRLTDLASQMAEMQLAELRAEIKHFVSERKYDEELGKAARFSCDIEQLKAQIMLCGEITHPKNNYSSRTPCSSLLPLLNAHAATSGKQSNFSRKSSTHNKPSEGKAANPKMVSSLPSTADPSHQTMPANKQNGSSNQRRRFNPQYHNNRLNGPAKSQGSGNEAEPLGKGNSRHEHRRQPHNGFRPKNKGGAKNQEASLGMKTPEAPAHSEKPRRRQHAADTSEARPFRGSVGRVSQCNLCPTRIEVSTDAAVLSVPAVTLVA
# UniProt O15270: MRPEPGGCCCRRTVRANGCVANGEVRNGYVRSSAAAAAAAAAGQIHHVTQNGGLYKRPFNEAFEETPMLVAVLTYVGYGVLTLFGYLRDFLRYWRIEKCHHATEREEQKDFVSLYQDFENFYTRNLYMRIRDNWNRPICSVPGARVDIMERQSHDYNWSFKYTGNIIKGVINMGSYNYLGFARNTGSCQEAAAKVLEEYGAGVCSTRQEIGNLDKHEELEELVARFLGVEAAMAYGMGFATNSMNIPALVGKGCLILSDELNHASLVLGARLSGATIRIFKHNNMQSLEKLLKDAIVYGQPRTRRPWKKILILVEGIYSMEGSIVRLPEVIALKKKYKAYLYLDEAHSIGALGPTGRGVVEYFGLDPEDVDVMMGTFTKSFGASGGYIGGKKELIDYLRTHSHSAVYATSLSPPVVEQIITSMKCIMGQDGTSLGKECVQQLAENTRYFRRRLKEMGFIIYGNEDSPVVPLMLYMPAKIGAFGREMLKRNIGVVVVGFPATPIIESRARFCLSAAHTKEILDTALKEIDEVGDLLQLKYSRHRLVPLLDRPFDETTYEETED
# UniProt O15269: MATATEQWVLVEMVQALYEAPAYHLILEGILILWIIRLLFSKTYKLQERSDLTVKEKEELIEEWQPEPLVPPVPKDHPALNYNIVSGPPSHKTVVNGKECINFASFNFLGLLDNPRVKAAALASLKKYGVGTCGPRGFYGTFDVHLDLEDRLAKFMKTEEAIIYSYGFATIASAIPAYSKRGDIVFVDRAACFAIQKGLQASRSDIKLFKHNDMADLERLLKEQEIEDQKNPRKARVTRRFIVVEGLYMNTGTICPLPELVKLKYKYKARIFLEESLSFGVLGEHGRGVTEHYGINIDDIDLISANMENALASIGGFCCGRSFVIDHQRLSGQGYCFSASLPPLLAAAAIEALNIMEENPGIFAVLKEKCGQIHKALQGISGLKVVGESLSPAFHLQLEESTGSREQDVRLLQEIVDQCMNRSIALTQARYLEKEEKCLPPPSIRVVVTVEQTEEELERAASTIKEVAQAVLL
# UniProt Q92673: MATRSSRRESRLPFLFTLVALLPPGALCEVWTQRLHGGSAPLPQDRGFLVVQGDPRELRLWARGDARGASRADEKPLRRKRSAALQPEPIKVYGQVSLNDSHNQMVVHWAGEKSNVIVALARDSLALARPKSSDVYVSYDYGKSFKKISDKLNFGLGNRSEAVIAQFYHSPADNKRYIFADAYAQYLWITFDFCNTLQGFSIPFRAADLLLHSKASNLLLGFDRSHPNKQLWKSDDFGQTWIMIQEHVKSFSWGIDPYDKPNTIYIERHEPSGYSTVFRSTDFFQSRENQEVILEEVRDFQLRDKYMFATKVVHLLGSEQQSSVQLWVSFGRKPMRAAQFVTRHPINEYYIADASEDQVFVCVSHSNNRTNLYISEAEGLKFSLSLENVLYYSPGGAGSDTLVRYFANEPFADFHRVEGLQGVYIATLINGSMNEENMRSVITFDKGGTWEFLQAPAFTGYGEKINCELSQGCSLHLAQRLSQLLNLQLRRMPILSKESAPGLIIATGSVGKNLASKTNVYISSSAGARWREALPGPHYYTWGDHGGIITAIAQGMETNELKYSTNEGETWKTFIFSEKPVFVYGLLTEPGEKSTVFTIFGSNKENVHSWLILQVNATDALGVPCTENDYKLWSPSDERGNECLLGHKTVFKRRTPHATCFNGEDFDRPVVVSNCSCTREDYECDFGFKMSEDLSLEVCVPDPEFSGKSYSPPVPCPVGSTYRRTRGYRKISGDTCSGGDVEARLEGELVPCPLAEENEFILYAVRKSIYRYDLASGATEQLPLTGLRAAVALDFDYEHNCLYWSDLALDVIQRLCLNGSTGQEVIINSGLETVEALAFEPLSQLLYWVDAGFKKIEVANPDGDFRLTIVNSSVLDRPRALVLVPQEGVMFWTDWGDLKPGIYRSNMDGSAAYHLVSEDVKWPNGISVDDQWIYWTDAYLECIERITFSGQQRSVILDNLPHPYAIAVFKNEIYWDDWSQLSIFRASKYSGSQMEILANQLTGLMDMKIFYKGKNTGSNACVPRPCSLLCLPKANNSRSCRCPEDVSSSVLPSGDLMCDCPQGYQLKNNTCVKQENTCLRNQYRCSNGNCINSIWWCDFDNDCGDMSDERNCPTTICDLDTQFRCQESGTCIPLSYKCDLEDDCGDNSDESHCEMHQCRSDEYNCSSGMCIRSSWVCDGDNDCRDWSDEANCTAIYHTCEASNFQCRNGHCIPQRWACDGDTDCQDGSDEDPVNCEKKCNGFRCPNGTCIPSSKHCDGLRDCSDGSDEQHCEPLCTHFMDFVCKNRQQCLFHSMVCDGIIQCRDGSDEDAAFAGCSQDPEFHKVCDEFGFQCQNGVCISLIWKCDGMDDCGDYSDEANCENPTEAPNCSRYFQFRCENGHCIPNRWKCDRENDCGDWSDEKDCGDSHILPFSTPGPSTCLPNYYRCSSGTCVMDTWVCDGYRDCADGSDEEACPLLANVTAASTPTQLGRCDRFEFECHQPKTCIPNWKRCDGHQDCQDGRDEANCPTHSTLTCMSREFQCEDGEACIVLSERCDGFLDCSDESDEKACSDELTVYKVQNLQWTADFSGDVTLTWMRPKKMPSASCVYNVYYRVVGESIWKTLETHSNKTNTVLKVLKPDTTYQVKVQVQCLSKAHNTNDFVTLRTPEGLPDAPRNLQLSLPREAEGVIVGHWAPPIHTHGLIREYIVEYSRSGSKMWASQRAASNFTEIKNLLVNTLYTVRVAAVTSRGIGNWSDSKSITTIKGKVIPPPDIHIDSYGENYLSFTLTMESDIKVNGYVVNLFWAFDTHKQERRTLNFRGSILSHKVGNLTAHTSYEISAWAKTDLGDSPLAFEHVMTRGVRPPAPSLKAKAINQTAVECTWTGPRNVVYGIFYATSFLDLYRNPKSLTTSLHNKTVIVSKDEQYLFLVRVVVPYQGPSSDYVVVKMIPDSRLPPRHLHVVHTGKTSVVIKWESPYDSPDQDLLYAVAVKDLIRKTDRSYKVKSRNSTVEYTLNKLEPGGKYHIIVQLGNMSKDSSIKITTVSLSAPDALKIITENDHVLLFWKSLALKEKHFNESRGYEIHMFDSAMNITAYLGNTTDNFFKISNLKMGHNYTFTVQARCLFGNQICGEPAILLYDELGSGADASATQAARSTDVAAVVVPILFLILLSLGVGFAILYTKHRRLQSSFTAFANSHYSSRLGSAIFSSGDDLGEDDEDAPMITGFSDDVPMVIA
# UniProt Q00796: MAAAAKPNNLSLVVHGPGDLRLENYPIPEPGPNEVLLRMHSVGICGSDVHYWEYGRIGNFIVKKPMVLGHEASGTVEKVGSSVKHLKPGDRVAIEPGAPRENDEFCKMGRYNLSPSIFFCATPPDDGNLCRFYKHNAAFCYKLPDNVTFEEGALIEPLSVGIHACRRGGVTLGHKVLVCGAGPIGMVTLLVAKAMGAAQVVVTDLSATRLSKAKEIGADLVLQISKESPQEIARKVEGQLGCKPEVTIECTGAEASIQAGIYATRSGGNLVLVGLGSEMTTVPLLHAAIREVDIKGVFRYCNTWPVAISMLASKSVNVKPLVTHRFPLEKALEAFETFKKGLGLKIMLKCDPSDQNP
# UniProt P23497: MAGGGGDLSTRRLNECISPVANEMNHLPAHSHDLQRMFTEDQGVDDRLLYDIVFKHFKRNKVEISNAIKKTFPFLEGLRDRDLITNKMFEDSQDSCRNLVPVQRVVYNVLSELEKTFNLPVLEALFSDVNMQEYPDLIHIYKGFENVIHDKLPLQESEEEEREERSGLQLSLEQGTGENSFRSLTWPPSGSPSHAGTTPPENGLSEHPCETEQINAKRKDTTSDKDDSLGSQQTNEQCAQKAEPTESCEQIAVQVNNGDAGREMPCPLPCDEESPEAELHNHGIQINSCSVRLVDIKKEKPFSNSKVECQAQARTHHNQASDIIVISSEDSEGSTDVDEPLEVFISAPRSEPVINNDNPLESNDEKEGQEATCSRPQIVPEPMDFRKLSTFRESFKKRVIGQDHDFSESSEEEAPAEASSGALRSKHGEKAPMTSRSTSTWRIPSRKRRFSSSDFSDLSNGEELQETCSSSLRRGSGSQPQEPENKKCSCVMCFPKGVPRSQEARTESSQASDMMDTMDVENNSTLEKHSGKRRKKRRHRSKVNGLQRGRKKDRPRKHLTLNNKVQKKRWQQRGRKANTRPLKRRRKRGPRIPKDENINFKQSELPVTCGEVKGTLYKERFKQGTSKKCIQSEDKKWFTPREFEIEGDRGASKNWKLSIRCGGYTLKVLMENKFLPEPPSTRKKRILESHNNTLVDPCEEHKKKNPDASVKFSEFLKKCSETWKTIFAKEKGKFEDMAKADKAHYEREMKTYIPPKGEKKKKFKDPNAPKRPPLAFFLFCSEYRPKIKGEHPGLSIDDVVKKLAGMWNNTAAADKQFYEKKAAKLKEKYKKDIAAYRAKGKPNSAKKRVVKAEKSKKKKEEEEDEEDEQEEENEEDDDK
# UniProt Q9Y5X3: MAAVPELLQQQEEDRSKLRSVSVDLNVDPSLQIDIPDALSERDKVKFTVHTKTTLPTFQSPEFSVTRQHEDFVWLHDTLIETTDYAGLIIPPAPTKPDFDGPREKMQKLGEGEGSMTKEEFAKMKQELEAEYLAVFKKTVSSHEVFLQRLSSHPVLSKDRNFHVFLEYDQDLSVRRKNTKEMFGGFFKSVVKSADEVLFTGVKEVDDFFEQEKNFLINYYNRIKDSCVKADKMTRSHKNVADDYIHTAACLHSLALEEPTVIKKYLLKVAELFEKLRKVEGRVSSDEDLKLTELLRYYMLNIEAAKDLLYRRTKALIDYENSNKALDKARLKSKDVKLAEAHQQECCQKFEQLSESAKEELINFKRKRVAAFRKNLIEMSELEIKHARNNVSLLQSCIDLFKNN
# UniProt P55769: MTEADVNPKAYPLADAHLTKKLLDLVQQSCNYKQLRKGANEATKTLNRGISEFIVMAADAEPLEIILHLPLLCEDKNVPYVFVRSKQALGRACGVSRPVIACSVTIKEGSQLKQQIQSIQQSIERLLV
# UniProt O75391: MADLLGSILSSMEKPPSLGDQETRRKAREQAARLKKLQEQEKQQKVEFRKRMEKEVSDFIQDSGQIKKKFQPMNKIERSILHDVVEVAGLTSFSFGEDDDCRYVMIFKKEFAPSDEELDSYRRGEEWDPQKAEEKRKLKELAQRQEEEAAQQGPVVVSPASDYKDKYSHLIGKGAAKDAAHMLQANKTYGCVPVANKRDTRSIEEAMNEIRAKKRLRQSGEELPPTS
# UniProt P09132: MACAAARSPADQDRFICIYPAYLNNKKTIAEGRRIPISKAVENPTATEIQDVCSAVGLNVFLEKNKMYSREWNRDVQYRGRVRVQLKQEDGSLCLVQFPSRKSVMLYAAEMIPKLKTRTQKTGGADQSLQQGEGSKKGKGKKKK
# UniProt Q9UHB9: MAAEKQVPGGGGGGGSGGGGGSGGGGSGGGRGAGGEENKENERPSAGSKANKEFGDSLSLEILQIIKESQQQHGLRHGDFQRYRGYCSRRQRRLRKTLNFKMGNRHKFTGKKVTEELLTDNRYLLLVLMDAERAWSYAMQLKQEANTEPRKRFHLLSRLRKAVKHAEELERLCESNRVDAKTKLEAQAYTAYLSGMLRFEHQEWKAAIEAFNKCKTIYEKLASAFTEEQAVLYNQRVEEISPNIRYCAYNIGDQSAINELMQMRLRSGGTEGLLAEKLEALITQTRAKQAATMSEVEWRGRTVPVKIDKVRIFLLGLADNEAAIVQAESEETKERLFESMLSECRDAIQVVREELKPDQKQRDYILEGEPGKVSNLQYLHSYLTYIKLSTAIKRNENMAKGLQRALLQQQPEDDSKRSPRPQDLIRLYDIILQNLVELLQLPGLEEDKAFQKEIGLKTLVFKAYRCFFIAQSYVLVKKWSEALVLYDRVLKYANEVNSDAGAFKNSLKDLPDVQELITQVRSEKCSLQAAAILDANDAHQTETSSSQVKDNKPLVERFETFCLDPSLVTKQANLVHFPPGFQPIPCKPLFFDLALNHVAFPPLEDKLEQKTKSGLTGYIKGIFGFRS
# The other results are listed elsewhere or left out.
# Compound: CC1Cc2ccccc2N1C(=O)C1CCCN(C1)C(=O)CCl (mixture of isomers) [TRIM25 ligand 11 (diastereomer mixture)]
# Experiment: probe-labelled cysteine peptide fold change vs DMSO (competition) (log2 fold change); higher = less target engagement (more negative = stronger competition)
# Details: THP-1, incubation time: 4 h
# 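Note: competitive chemoproteomic profiling in live THP-1 cells with an iodoacetamide desthiobiotin (IA-DTB) probe, comparing probe-labelled peptide intensities in compound-treated cells against DMSO-treated controls.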
Target,probe-labelled cysteine peptide fold change (10 µM),probe-labelled cysteine peptide fold change (50 µM)
SPG7_Q9UQ90_353_GALLLGPPGCGK (UniProt Q9UQ90),0.0394,-0.00155
SQOR_Q9Y6N5_337_RYPNVFGIGDCTNLPTSK (UniProt Q9Y6N5),0.00602,-0.00437
SPATS2L_Q9NUQ6_351_AQIMLCGEITHPK (UniProt Q9NUQ6),0.164,-0.257
SPATA20_Q8TB22_721_ALVQCVHSVYIPNK (UniProt Q8TB22),-0.131,0.047
SRM_P19623_25_ETCSLWPGQALSLQVEQLLHHR (UniProt P19623),0.0438,0.0281
SRI_P30626_194_RDTAQQGVVNFPYDDFIQCVMSV (UniProt P30626),0.2,-0.0123
SNX32_Q86XE0_237_CLADDYIPISAALSSLGTQEVNQLR (UniProt Q86XE0),0.34,-0.184
SPAG5_Q96R06_589_DAAEIVLEAFCAHASQR (UniProt Q96R06),0.166,0.0881
SPTAN1_Q13813_1622_GACAGSEDAVK (UniProt Q13813),-0.135,-0.00186
SNTB1_Q13884_515_DGEIQLDLHSCPKPIVFIIHSFLSAK (UniProt Q13884),-0.207,0.302
SPTLC2_O15270_188_NTGSCQEAAAK (UniProt O15270),0.0981,0.0507
SNRPB_P14678_43+45_HMNLILCDCDEFRK (UniProt P14678),-0.0283,-0.00106
SPATS2L_Q9NUQ6_263_AAFAELHNCIIDK (UniProt Q9NUQ6),0.126,-0.00451
SPTLC1_O15269_419_LLQEIVDQCMNR (UniProt O15269),-0.0677,-0.0878
SPTLC1_O15269_255_FIVVEGLYMNTGTICPLPELVK (UniProt O15269),0.0161,-0.0323
SORL1_Q92673_752_LEGELVPCPLAEENEFILYAVR (UniProt Q92673),0.297,-0.028
SPRYD3_Q8NCJ5_147_IGCGIEPVSFDVQTAQIFFTK (UniProt Q8NCJ5),-0.137,-0.375
SNW1_Q13573_250_IPPCISNWK (UniProt Q13573),-0.0831,-0.131
SPRED2_Q7Z698_73_LVVLECYVR (UniProt Q7Z698),-0.163,0.187
SPTLC2_O15270_438_ECVQQLAENTR (UniProt O15270),-0.0248,0.043
SPAG9_O60271_761_NQEELSSLVWICTSTHSATK (UniProt O60271),0.219,0.177

Target,probe-labelled cysteine peptide fold change (10 µM),probe-labelled cysteine peptide fold change (50 µM)
SORD_Q00796_301_YCNTWPVAISMLASK (UniProt Q00796),0.311,-0.116
SPTLC2_O15270_511_FCLSAAHTK (UniProt O15270),-0.0923,-0.0466
SPATA5L1_Q9BVQ7_78_RDGADGFVQLDPLCASPGAAVGASR (UniProt Q9BVQ7),0.0287,0.405
SPAG1_Q07617_825_EACAHLLAITAPK (UniProt Q07617),-0.0823,-0.0988
SOGA1_O94964_1113_EITNCVR (UniProt O94964),-0.0643,0.0743
SORL1_Q92673_1158_CDLEDDCGDNSDESHCEMHQCR (UniProt Q92673),-0.222,-0.111
SOD1_P00441_112_HVGDLGNVTADKDGVADVSIEDSVISLSGDHCIIGR (UniProt P00441),-0.17,-0.19
SP100_P23497_16_LNECISPVANEMNHLPAHSHDLQR (UniProt P23497),-0.103,-0.152
SPTLC1_O15269_100_ECINFASFNFLGLLDNPR (UniProt O15269),0.0114,0.0695
SRBD1_Q8N5C6_571_LAIISPTSQILHTDVVYLHCGQGFR (UniProt Q8N5C6),0.173,0.216
SPAST_Q9UBP0_220_SQTDVYNDSTNLACR (UniProt Q9UBP0),-0.142,-0.0365
SPATS2L_Q9NUQ6_185_SDGLQWSAEQPCNPSKPK (UniProt Q9NUQ6),-0.0644,-0.218
SNX5_Q9Y5X3_250_NVADDYIHTAACLHSLALEEPTVIKK (UniProt Q9Y5X3),-0.0814,-0.118
SNX5_Q9Y5X3_250_NVADDYIHTAACLHSLALEEPTVIK (UniProt Q9Y5X3),0.0896,-0.0461
SORL1_Q92673_1484_TCIPNWK (UniProt Q92673),-0.112,-0.239
SPR_P35270_10_AVCLLTGASR (UniProt P35270),-0.0764,0.0366
SPECC1_Q5M775_633_EICDHQAEQLSR (UniProt Q5M775),-0.00943,-0.0553
SOD1_P00441_112_DGVADVSIEDSVISLSGDHCIIGR (UniProt P00441),-0.0836,-0.171
SRGAP2_O75044_486_TDCSLAR (UniProt O75044),-0.0891,-0.197
SPAG1_Q07617_680_QDCDQALQLADGNVK (UniProt Q07617),-0.107,-0.0204
SNUPN_O95149_199_GHPFYDCQTDFR (UniProt O95149),0.47,0.00215

Target,probe-labelled cysteine peptide fold change (10 µM),probe-labelled cysteine peptide fold change (50 µM)
SP1_P08047_663_WHTGERPFMCTWSYCGK (UniProt P08047),-0.0192,-0.0115
SP3_Q02447_683+686_KFVCPECSK (UniProt Q02447),0.0493,0.0729
SPATA2_Q9UM82_41_QRPGSDECLR (UniProt Q9UM82),-0.103,-0.177
SRBD1_Q8N5C6_120_CAAQPHTVR (UniProt Q8N5C6),0.0057,-0.0692
SNU13_P55769_30_LLDLVQQSCNYK (UniProt P55769),-0.094,-0.0737
SNX3_O60493_140_CLHMFLQDEIIDK (UniProt O60493),-0.0941,-0.138
SPAG7_O75391_191_TYGCVPVANKR (UniProt O75391),-0.262,-0.196
SRBD1_Q8N5C6_397_RHVCIQSSLAK (UniProt Q8N5C6),0.0842,-0.057
SRP19_P09132_94_QEDGSLCLVQFPSRK (UniProt P09132),-0.133,-0.0491
SRP68_Q9UHB9_586_QANLVHFPPGFQPIPCK (UniProt Q9UHB9),-0.137,0.0373
SPINT1_O43278_424_FTYGGCYGNK (UniProt O43278),0.0778,0.114
SRP72_O76094_323_ALLAMYTNQAEQCR (UniProt O76094),-0.0105,0.0132
SPTBN1_Q01082_2227_SWHNVYCVINNQEMGFYK (UniProt Q01082),0.112,0.0328
SRBD1_Q8N5C6_397_HVCIQSSLAK (UniProt Q8N5C6),0.0119,0.0956
SNX8_Q9Y5X2_200_ESAQCVGDEFLNCK (UniProt Q9Y5X2),-0.145,-0.286
SORD_Q00796_165_LPDNVTFEEGALIEPLSVGIHACR (UniProt Q00796),-0.0397,-0.259
SNRPF_P62306_66_CNNVLYIR (UniProt P62306),0.0532,0.0213
SP4_Q02446_625_VACSCPNCR (UniProt Q02446),-0.00227,0.0615
SRM_P19623_71_TYGNVLVLDGVIQCTERDEFSYQEMIANLPLCSHPNPR (UniProt P19623),0.207,0.393
SNU13_P55769_93+102_ACGVSRPVIACSVTIK (UniProt P55769),-0.144,0.0201
SRP68_Q9UHB9_87_YRGYCSR (UniProt Q9UHB9),-0.132,-0.139

Target,probe-labelled cysteine peptide fold change (10 µM),probe-labelled cysteine peptide fold change (50 µM)
SRA1_Q9HD15_134_QVCDDISR (UniProt Q9HD15),-0.0271,-0.0296
SNX27_Q96L92_432_TCEGYNEIIFPHCACDSR (UniProt Q96L92),0.135,-0.0106
SNX29_Q8TEQ0_121_CALNEHSLER (UniProt Q8TEQ0),0.0515,-0.00659
SPDL1_Q96EA4_490_EETQSCPNSLEDNNLQLEK (UniProt Q96EA4),0.0497,-0.157
SRCAP_Q6ZRS2_2372_EEVFRLPQEEEEGPGAGDESSCGTGGGTHR (UniProt Q6ZRS2),-0.0985,-0.303
SPPL2A_Q8TCT8_95_AVVVPWGSCHFLEK (UniProt Q8TCT8),0.0216,-0.217
SNRPC_P09234_25_KTHCSGR (UniProt P09234),-0.332,-0.766
SNX7_Q9UNH6_325_KADTDLLPEEIGKLEDKVECANNALK (UniProt Q9UNH6),-0.303,-0.442
SPTAN1_Q13813_1930_DRVNDVCTNGQDLIK (UniProt Q13813),0.00721,0.386
SPRYD7_Q5W111_150_NMHCPASGIR (UniProt Q5W111),0.0439,-0.0213
SP100_P23497_248_AEPTESCEQIAVQVNNGDAGR (UniProt P23497),-0.242,0.017
SP140_Q13342_686_SQNNSSVDPCMR (UniProt Q13342),-0.0579,-0.227
SNX14_Q9Y5W7_857_DAIFCENTEPR (UniProt Q9Y5W7),0.31,0.161
SOS1_Q07889_838_CIVETENLEER (UniProt Q07889),0.179,0.163
SRP19_P09132_53_AVENPTATEIQDVCSAVGLNVFLEK (UniProt P09132),-0.249,-0.0881
SRCAP_Q6ZRS2_1926_IFQLSEAHGALAPVYGTEVLDFCTLPQPVASPIGPR (UniProt Q6ZRS2),0.683,0.741
SPAG7_O75391_101_SILHDVVEVAGLTSFSFGEDDDCR (UniProt O75391),-0.0927,-0.274
SRM_P19623_205+209_EDGVLCCQGECQWLHLDLIK (UniProt P19623),0.109,0.287
SORL1_Q92673_1302_QQCLFHSMVCDGIIQCR (UniProt Q92673),0.0347,0.112
SP110_Q9HB58_468_LPVTCGEAK (UniProt Q9HB58),-0.149,-0.181
